Reference: the supplement of paper PMC4604168 (melanoma cell lines)
This is one part of the list. Repeats are few or missing, and single values can be far off.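 The apoptosis fraction was the count of cleaved-PARP antibody-stained nuclei relative to all DNA-stained nuclei, imaged in 1,536-well plates. Screening doses were set so most cells survived, and baseline and induced cleaved-PARP levels vary greatly across cell lines.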

Tested on: CBRC008 (line from a melanoma biopsy)
Test: cleaved PARP positive nuclei fraction relative to DMSO control; melanoma cells; higher = more apoptosis
Settings: library dose: low library concentration; 72 h

Row | Structure (SMILES) | cleaved PARP positive nuclei fraction [%]
1 | Cn1cc(C2=C(c3cn(C4CCN(Cc5ccccn5)CC4)c4ccccc34)C(=O)NC2=O)c2ccccc21 [Enzastaurin] + CN(c1ncccc1CNc1nc(Nc2ccc3c(c2)CC(=O)N3)ncc1C(F)(F)F)S(C)(=O)=O [PF562271] (first compound 0.8 µM, partner dose 0.08 µM) | 405
2 | C[C@]12O[C@H](C[C@]1(O)CO)n1c3ccccc3c3c4c(c5c6ccccc6n2c5c31)CNC4=O [Lestaurtinib] + O=C(O)c1ccc2c(c1)nc(Nc1cccc(Cl)c1)c1ccncc12 [CX4945] (first compound 0.004 µM, partner dose 0.4 µM) | 98.6
3 | CC(=O)c1c(C)c2cnc(Nc3ccc(N4CCNCC4)cn3)nc2n(C2CCCC2)c1=O [palbociclib] + C[As](C)SC[C@H](NC(=O)CC[C@H](N)C(=O)O)C(=O)NCC(=O)O [Darinaparsin] (first compound 0.04 µM, partner dose 0.4 µM) | 59.5
4 | NC1(c2ccc(-c3nc4ccn5c(=O)[nH]nc5c4cc3-c3ccccc3)cc2)CCC1 + N.N.[Cl][Pt][Cl] [cisplatin] (first compound 0.4 µM, partner dose 1.6 µM) | 196
5 | Cc1cc(Nc2cc(N3CCN(C)CC3)nc(Sc3ccc(NC(=O)C4CC4)cc3)n2)n[nH]1 [Tozasertib] + Cn1cc(C2=C(c3cn(C4CCN(Cc5ccccn5)CC4)c4ccccc34)C(=O)NC2=O)c2ccccc21 [Enzastaurin] (first compound 0.006 µM, partner dose 0.8 µM) | 76.1
6 | CC(C)C[C@H](NC(=O)[C@H](Cc1ccccc1)NC(=O)c1cnccn1)B(O)O [Bortezomib] + N.N.[Cl][Pt][Cl] [cisplatin] (first compound 0.001 µM, partner dose 1.6 µM) | 698
7 | Nc1nc(F)nc2c1ncn2[C@@H]1O[C@H](CO)[C@@H](O)[C@@H]1O [fludarabine] + C[As](C)SC[C@H](NC(=O)CC[C@H](N)C(=O)O)C(=O)NCC(=O)O [Darinaparsin] (first compound 0.2 µM, partner dose 0.4 µM) | 68.6
8 | Cn1cc(C2=C(c3cn(C4CCN(Cc5ccccn5)CC4)c4ccccc34)C(=O)NC2=O)c2ccccc21 [Enzastaurin] + CCN(CC)CCNC(=O)c1c(C)[nH]c(/C=C2\C(=O)Nc3ccc(F)cc32)c1C [sunitinib] (first compound 0.8 µM, partner dose 0.4 µM) | 203
9 | C[C@]12O[C@H](C[C@]1(O)CO)n1c3ccccc3c3c4c(c5c6ccccc6n2c5c31)CNC4=O [Lestaurtinib] + Nc1cccc2c1CN(C1CCC(=O)NC1=O)C2=O [lenalidomide] (first compound 0.004 µM, partner dose 1 µM) | 140
10 | N.N.[Cl][Pt][Cl] [cisplatin] + Cn1nnc2c(C(N)=O)ncn2c1=O [temozolomide] (first compound 1.6 µM, partner dose 2 µM) | 106
11 | Cn1cc(C2=C(c3cn(C4CCN(Cc5ccccn5)CC4)c4ccccc34)C(=O)NC2=O)c2ccccc21 [Enzastaurin] + CNC(=O)c1cc(Oc2ccc(NC(=O)Nc3ccc(Cl)c(C(F)(F)F)c3)cc2)ccn1 [sorafenib] (first compound 0.8 µM, partner dose 0.4 µM) | 44.1
12 | Cc1cn(-c2cc(NC(=O)c3ccc(C)c(Nc4nccc(-c5cccnc5)n4)c3)cc(C(F)(F)F)c2)cn1 [nilotinib] + C[As](C)SC[C@H](NC(=O)CC[C@H](N)C(=O)O)C(=O)NCC(=O)O [Darinaparsin] (first compound 0.2 µM, partner dose 0.4 µM) | 63.5
13 | Cc1ccc(Nc2nccc(N(C)c3ccc4c(C)n(C)nc4c3)n2)cc1S(N)(=O)=O [Pazopanib] + Cn1cc(C2=C(c3cn(C4CCN(Cc5ccccn5)CC4)c4ccccc34)C(=O)NC2=O)c2ccccc21 [Enzastaurin] (first compound 0.4 µM, partner dose 0.8 µM) | 79
14 | C[C@]12O[C@H](C[C@]1(O)CO)n1c3ccccc3c3c4c(c5c6ccccc6n2c5c31)CNC4=O [Lestaurtinib] + OCc1c[nH]c2ccccc12 [Indole-3-carbinol] (first compound 0.004 µM, partner dose 0.8 µM) | 31.4

As a short view, some entries already given.
Row | Structure (SMILES) | cleaved PARP positive nuclei fraction [%]
1 | Cn1cc(C2=C(c3cn(C4CCN(Cc5ccccn5)CC4)c4ccccc34)C(=O)NC2=O)c2ccccc21 [Enzastaurin] + CN(c1ncccc1CNc1nc(Nc2ccc3c(c2)CC(=O)N3)ncc1C(F)(F)F)S(C)(=O)=O [PF562271] (first compound 0.8 µM, partner dose 0.08 µM) | 405
2 | C[C@]12O[C@H](C[C@]1(O)CO)n1c3ccccc3c3c4c(c5c6ccccc6n2c5c31)CNC4=O [Lestaurtinib] + O=C(O)c1ccc2c(c1)nc(Nc1cccc(Cl)c1)c1ccncc12 [CX4945] (first compound 0.004 µM, partner dose 0.4 µM) | 98.6
